According to the supplement of paper PMC3682954:
Counter-ions that a name gives are not always drawn. ± gives the standard deviation of the averaged measurements. This is one part of the list. Single values are uncertain, as repeats are few or missing.

Test system: RAW 264.7
Assay: cell viability (MTT) relative to vehicle control; higher = more viable cells
Conditions: stimulus: HMGB1 5 ug/ml, 18 h
[1] = compound concentration: 1 ug/ml

Structure (SMILES)	cell viability (compound concentration: 3 uM) [%]	cell viability [1] [%]
CCC[S+]([O-])c1ccc2[nH]c(NC(=O)OC)nc2c1 (stereo unspecified) [Ricobendazole]	96	–
NC(=O)OCC(COC(N)=O)c1ccccc1 [Felbamate]	103 ± 9.3	–
Cc1ccnc(NS(=O)(=O)c2ccc(N)cc2)n1 [Sulfamerazine]	110	–
Cc1ccnc(NS(=O)(=O)c2ccc(N)cc2)n1	98.1	–
C[C@H]1NC(=O)NC1=O [Methylhydantoin-5-(D)]	94.7	–
COCc1nc2c([nH]1)c(=O)n(C)c(=O)n2CC(C)C [8-Methoxymethyl-3-isobutyl-1-methylxanthine]	102	–
[O-][n+]1cccc(CO)c1	117	–
CCCCC/C=C/CCC(=O)N[C@H]1[C@H](Oc2c3cc4cc2Oc2ccc(cc2Cl)[C@@H](O[C@@H]2O[C@H](CO)[C@@H](O)[C@H](O)[C@H]2NC(C)=O)[C@@H]2NC(=O)[C@H](NC(=O)[C@@H]4NC(=O)[C@H]4NC(=O)C(Cc5ccc(c(Cl)c5)O3)NC(=O)[C@H](N)c3ccc(O)c(c3)Oc3cc(O)cc4c3)c3ccc(O)c(c3)-c3c(OC4O[C@H](CO)[C@@H](O)[C@H](O)[C@@H]4O)cc(O)cc3[C@@H](C(=O)O)NC2=O)O[C@H](CO)[C@@H](O)[C@@H]1O (stereo partly specified) [TEICOPLANIN [A(2-1) shown]]	114	–
COc1ccc(C[C@H](N)C(=O)N[C@H]2[C@@H](O)[C@H](n3cnc4c(N(C)C)ncnc43)O[C@@H]2CO)cc1 [Puromycin]	48.6	–
COc1ccc(C[C@H](N)C(=O)N[C@H]2[C@@H](O)[C@H](n3cnc4c(N(C)C)ncnc43)O[C@@H]2CO)cc1	115	–
CCCCCC(O)c1cccc(OCc2ccc3ccccc3n2)c1 (stereo unspecified)	125	–
CC(C)(C)c1ccc(C(=O)CCCN2CCC(OC(c3ccccc3)c3ccccc3)CC2)cc1 [Ebastine]	106	–
O=c1ccn([C@@H]2O[C@H](CO)[C@@H](O)[C@H]2O)c(=O)[nH]1 [Uridine;  1-beta-D-Ribofuranosyluracil]	–	97.4
CC(C)n1c(/C=C/C(O)CC(O)CC(=O)O)c(-c2ccc(F)cc2)c2ccccc21 (stereo unspecified)	105	–
CC(C)n1c(/C=C/C(O)CC(O)CC(=O)O)c(-c2ccc(F)cc2)c2ccccc21 (stereo unspecified) [Fluvastatin]	127	–
CC(C)n1c(/C=C/C(O)CC(O)CC(=O)O)c(-c2ccc(F)cc2)c2ccccc21 (stereo unspecified) [Fluvastatin sodium salt]	111	–
O=c1ncc(F)c[nH]1 [5-fluoro-2-pyrimidone]	99	–
CC(=O)Oc1ccccc1C(=O)Oc1ccccc1C(=O)O [Acetylsalicylsalicylic acid]	86.1	–
CNC(=O)c1c(I)c(C(=O)NCC(=O)Nc2c(I)c(C(=O)O)c(I)c(C(=O)NCCO)c2I)c(I)c(N(C)C(C)=O)c1I [Ioxaglic acid]	95.8	–
CCCCNc1cc(C(=O)O)cc(S(N)(=O)=O)c1Oc1ccccc1	103	–
CCCCNc1cc(C(=O)O)cc(S(N)(=O)=O)c1Oc1ccccc1 [Bumetanide]	101 ± 5.6	–
Cc1c(C)c2c(c(C)c1O)CCC(C)(C(=O)O)O2 (stereo unspecified) [Trolox]	83.8	–
CC[C@H](C)C(=O)O[C@H]1C[C@@H](C)C=C2C=C[C@H](C)[C@H](CC[C@@H]3C[C@@H](O)CC(=O)O3)[C@H]21	118	–

Single values from the entries so far.
Value of CCCCNc1cc(C(=O)O)cc(S(N)(=O)=O)c1Oc1ccccc1 [Bumetanide] under cell viability (compound concentration: 3 uM) [%]: 101 ± 5.6
Value of O=c1ncc(F)c[nH]1 [5-fluoro-2-pyrimidone] under cell viability (compound concentration: 3 uM) [%]: 99

Additional entries follow.

Structure (SMILES)	cell viability (compound concentration: 3 uM) [%]	cell viability [1] [%]
CC[C@H](C)C(=O)O[C@H]1C[C@@H](C)C=C2C=C[C@H](C)[C@H](CC[C@@H]3C[C@@H](O)CC(=O)O3)[C@H]21 [Mevinolin; Lovastatin]	–	100
CC[C@H](C)C(=O)O[C@H]1C[C@@H](C)C=C2C=C[C@H](C)[C@H](CC[C@@H]3C[C@@H](O)CC(=O)O3)[C@H]21 [Lovastatin]	111 ± 14	–
NC1CCN(O)C1=O (racemic)	105	–
CCOC(=O)[C@@H](N)Cc1ccccc1 [Phenylalanine ethyl ester hydrochloride]	–	94.2
Cn1ccnc1 [1-Methylimidazole]	111	–
CCN(CC)CCOC(=O)c1ccc(N)cc1	98.5	–
CCN(CC)CCOC(=O)c1ccc(N)cc1 [Procaine hydrochloride]	101 ± 8.1	–
CC(=O)CCCCn1cnc2c1c(=O)n(C)c(=O)n2C	91.6	–
O=C1C2OCC(O2)[C@@H]2[C@@H]1[C@@H]1c3ccccc3C=CN1[C@H]2C(=O)c1ccccc1 (stereo partly specified)	–	101
COc1cc2oc(-c3ccccc3)cc(=O)c2cc1OC	–	85.7
CC(=O)O[C@H]1C[C@@]2(C)[C@@H](C[C@@H](O)[C@H]3[C@@]4(C)CC[C@@H](O)[C@@H](C)[C@@H]4CC[C@@]32C)/C1=C(\CCC=C(C)C)C(=O)O [Fusidic acid sodium salt]	106	–
CC(=O)O[C@H]1C[C@@]2(C)[C@@H](C[C@@H](O)[C@H]3[C@@]4(C)CC[C@@H](O)[C@@H](C)[C@@H]4CC[C@@]32C)/C1=C(\CCC=C(C)C)C(=O)O	107	–
CC(=O)O[C@H]1C[C@@]2(C)[C@@H](C[C@@H](O)[C@H]3[C@@]4(C)CC[C@@H](O)[C@@H](C)[C@@H]4CC[C@@]32C)/C1=C(\CCC=C(C)C)C(=O)O [Fusidic acid sodium]	106	–
N#C/C(=C\c1ccc(O)c(O)c1)C(=O)NCCc1ccccc1 [Tyrphostin AG 698]	102	–
O=c1[nH]c(=O)c2nc3ccccc3nc2[nH]1 [Alloxazine]	97	–
O=c1cc(-c2ccccc2)[nH]c2nc(Cl)ccc12 [7-Chloro-4-hydroxy-2-phenyl-1,8-naphthyridine]	98.4	–
CC(=O)N[C@@H](CS)C(=O)O [Acetylcysteine]	105	–
CC(=O)N[C@@H](CS)C(=O)O	108	–
CC(=O)N[C@@H](CS)C(=O)O [N-Acetyl-L-Cysteine]	112	–
CN(C)CCn1nnnc1SCC1=C(C(=O)O)N2C(=O)[C@@H](NC(=O)Cc3csc(N)n3)[C@H]2SC1 [Cefotiam hydrochloride]	99.6	–
N[C@@H](CCCC(=O)O)C(=O)O [L-2-aminoadipic acid]	112	–
CC(C)CCCC(C)N (stereo unspecified)	108	–
COc1ccc(-c2oc3cc(OC)ccc3c(=O)c2O)cc1 [4',7-Dimethoxy-3-hydroxyflavone]	–	112
